# Measured values from PubChem BioAssay AID504533 (Broad Institute, 2011).
# The inconclusive results got no clear call from the source; some entries with a clear call stand among them for comparison. Active and inactive are the calls of the source.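 Rule for the calls: active = compound whose fitted half-maximal viability-loss concentration is within ten times its top tested dose in every test run; inconclusive = test runs disagree, or a weak flat or poorly fitted curve; inactive = every test run inactive.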
# Assay: cytotoxicity in HMLE_sh_eGFP control cells, dose response, counter-screen for breast cancer stem cell project, cell-based, luminescence, powder samples, set 5 (AID 504533)
# Conditions: CellTiter-Glo luminescence, 72 h; at 19.5 µM (top of the series) unless noted
# In short: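 System: HMLE breast epithelial cells expressing shRNA against eGFP. Buffer or medium: serum-free CSC screening medium. Dosing: 100 nL compound pinned into each well. Times: about 72 h compound exposure at 37 °C. Technique: CellTiter-Glo luminescence, reagent diluted 1:3 in PBS. Measure: cell viability. Benchmarks: DMSO neutral control, 160 µM puromycin positive control.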
row,Compound,"activity change, negative = viability loss"
1,CC(C)c1ccc(/C=C/C(=O)N(C)C2=NCCS2)cc1,inactive: 10.1%
2,Cc1csc(NC(=O)c2ccc(CS(=O)(=O)c3ccccc3)o2)n1,inactive: -13.3%
3,CC(C)c1ccc(/C=C/C(=O)NC2=NCCS2)cc1,inconclusive: -24.1%
4,O=C(Nc1nncs1)c1ccc(COc2ccccc2)o1,inactive: 3.92%
5,Cc1coc(NC(=O)/C=C/c2ccc(C(C)C)cc2)n1,inactive: -6.75%
6,Cc1csc(NC(=O)c2ccc(COC(C)(C)C)o2)n1,inactive: -4.37%
7,Cc1csc(NC(=O)c2ccc(COc3ccccn3)o2)n1,inconclusive: -11.4%
8,Cc1csc(NC(=O)c2ccc(COc3ccc(S(C)(=O)=O)cc3)o2)n1,inconclusive: -16%
9,CNC(=O)c1csc(NC(=O)c2ccc(COc3ccccc3)o2)n1,inconclusive: -11.8%
10,Cc1csc(NC(=O)c2ccc(COC3CCCC3)o2)n1,inconclusive: -9.08%
11,N#Cc1csc(NC(=O)c2ccc(COc3ccccc3)o2)n1,inconclusive: -16.4%
12,Cc1cc(C)c(OCC(=O)N/N=C/c2ccc[nH]2)c(C)c1,inactive: 1.17%
13,Cc1csc(NC(=O)c2ccc(COc3cccc(S(C)(=O)=O)c3)o2)n1,inconclusive: -4.19%
14,CCN(CC)C(=O)c1ccc(COc2ccccc2)o1,inactive: 6.38%
15,O=C(Nc1nc(C(F)(F)F)cs1)c1ccc(COc2ccccc2)o1,inconclusive: -26.7%
16,Cc1ccc2cc(C(=O)NC3=NCCS3)n(C)c2c1,inactive: -4.12% [at 30 µM]

# Random excerpt: 2 compounds from above, in no set order.
row,Compound,"activity change, negative = viability loss"
7,Cc1csc(NC(=O)c2ccc(COc3ccccn3)o2)n1,inconclusive: -11.4%
10,Cc1csc(NC(=O)c2ccc(COC3CCCC3)o2)n1,inconclusive: -9.08%
